Assay results: PubChem BioAssay AID493014 (National Center for Advancing Translational Sciences (NCATS), 2011)
In all, about 340,000 compounds went through this assay and about 170 (0.05%) were called active. Inconclusive means that the source gave no clear call. Such entries were picked first, then a sample of the others. Calls follow the shape of the dose curve; as a rule, active = well fitted inhibition curve with a large enough effect in the signal ratio, with a control signal flat (not every such curve was filed as active); inconclusive = small, poorly fitted or top-dose-only effect, or effect the other way, or a change in a side signal; inactive = flat fitted curve, though single readings scatter; the % refers to the signal ratio. Where the call is inconclusive, the potency comes from a doubtful curve fit.

assay: qHTS Assay to Find Inhibitors of Chronic Active B-Cell Receptor Signaling; conditions: ABC-DLBCL IkBa-CBG/CBR reporter, luminescence ratio (green luciferase fused to IkBa over red control in TMD8 lymphoma cells), 4 h; activity change, negative = inhibition: at 46.1 µM (top of the series);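 as to activity change, negative = inhibition: plate controls were basal doxycycline-induced cells for no effect and cells given 10 µM MG132 for full effect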
In short: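 TMD8 human ABC-DLBCL cells with doxycycline-inducible IκBα–green luciferase fusion and unfused red luciferase, in 0.5% FBS medium; compounds up to 46 uM, 4 h at 37C. Green/red luminescence ratio, filter-overlap corrected, fitted to concentration-response curves.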
Potency is read from the fitted curve at half-maximal effect.

Q: Which activity change, negative = inhibition does the source give for `NC(=O)[C@@H]1CC2(CC(c3cccc(NC(=O)COc4ccc(Cl)cc4)c3)=NO2)CN1C(=O)c1ccccc1` (stereo partly drawn) here?
A: inconclusive: -173%

Q: Which activity change, negative = inhibition does the source give for `COc1ccc(NC(=O)c2cccn(CC=C(C)C)c2=O)cc1` here?
A: inconclusive: -10.1%

Q: For `Cn1c(SC2=CS(=O)(=O)c3ccccc32)nc2ccccc21`, which Potency is on record?
A: inconclusive: 14.1 µM [falling, partial curve]

Q: For `Cc1nc2c(C(F)(F)F)cccc2c2c1CCS2`, which Potency is on record?
A: inconclusive: 5.62 µM [falling, partial curve, poor fit]

Q: Which activity change, negative = inhibition does the source give for `COc1cc(/C=N/Nc2nc(Nc3ccccc3)nc(N3CCCCC3)n2)ccc1OCC(=O)O` here?
A: inconclusive: -2.81%

Q: With `Clc1ccc(CNc2nc(CN3CCOCC3)nc3scc(-c4ccccc4)c23)cc1` as the molecule, how does the Potency read?
A: inconclusive: 29.1 µM [falling, single point]

Q: With `C=CCOC(=O)C1=C(C)NC(SCC(N)=O)=C(C#N)C1c1ccc(C)cc1` (stereo not drawn) as the molecule, how does the activity change, negative = inhibition read?
A: inconclusive: 1.12%

Q: With `Cc1ccc(C(=O)N2CCN(c3ccccc3F)CC2)cc1S(=O)(=O)N1CCOCC1` as the molecule, how does the activity change, negative = inhibition read?
A: inconclusive: -1.98%

Q: With `CN1CC(=O)N2C(c3ccc(Cl)cc3)c3[nH]c4ccccc4c3C[C@H]2C1=O` (stereo partly drawn) as the molecule, how does the activity change, negative = inhibition read?
A: inconclusive: -1.22%

Q: With `O=C(O)c1cc(N/N=C/c2c(O)ccc3ccccc23)ccc1Cl` as the molecule, how does the Potency read?
A: inconclusive: 31.6 µM [falling, single point]

Q: For `O=C(NCCc1ccccc1)c1cc(-c2ccco2)on1`, which Potency is on record?
A: inconclusive: 13 µM [falling, partial curve]

Q: For `CN(C)S(=O)(=O)c1cccc(NC(=O)CSc2nc3c(cc2C#N)C(=O)CC(C)(C)C3)c1`, which activity change, negative = inhibition is on record?
A: inconclusive: -5.62%

Q: For `CSc1ccccc1NC(=O)CN(C)CC(=O)Nc1ccc(N2CCOCC2)cc1`, which activity change, negative = inhibition is on record?
A: inconclusive: 3.23%

Q: Which activity change, negative = inhibition does the source give for `O=C(/C(=C/c1ccccc1)n1cncn1)c1ccc(Cl)cc1Cl` here?
A: inconclusive: -3.54%

Q: Which Potency does the source give for `CCCOc1ccc(C(=O)Nc2ccc(N3CCN(C(C)=O)CC3)cc2)cc1` here?
A: inconclusive: 0.103 µM [rising, full curve, poor fit]

Q: For `Cc1nnc(SCC(=O)Nc2ccc(O)cc2)c2ccccc12`, which Potency is on record?
A: inconclusive: 22.4 µM [falling, partial curve]

Q: Which activity change, negative = inhibition does the source give for `Cc1cc(C(=O)CCC(=O)Nc2ncccc2C)c(C)s1` here?
A: inconclusive: -19.3%

Q: With `CCN(CC)c1nc2ccccc2nc1C(C#N)C(=O)NCCc1ccccc1` (stereo not drawn) as the molecule, how does the Potency read?
A: inconclusive: 9.2 µM [rising, partial curve, poor fit]

Q: With `Cn1c(SCC(=O)Nc2nc3ccccc3s2)ncc(C(=O)Nc2ccccc2)c1=O` as the molecule, how does the Potency read?
A: inconclusive: 3.16 µM [falling, partial curve, poor fit]

Q: For `CC1CCCCN1S(=O)(=O)c1ccc(C(=O)Nc2sccc2C(N)=O)cc1` (stereo not drawn), which Potency is on record?
A: inconclusive: 0.461 µM [falling, partial curve]

Q: With `OCCCCCNc1ncnc2ccccc12` as the molecule, how does the activity change, negative = inhibition read?
A: inactive

Q: For `COc1ccc(N(C)S(=O)(=O)c2cccc(C(=O)N3CCN(Cc4ccc5c(c4)OCO5)CC3)c2)cc1`, which activity change, negative = inhibition is on record?
A: inactive

Q: Which activity change, negative = inhibition does the source give for `COC(=O)Nc1nc(-c2cc(Cl)ccc2Cl)cs1` here?
A: inconclusive: 1.69%

Q: Which activity change, negative = inhibition does the source give for `O=C(Nc1ccc2c(c1)OCCO2)C1CCCN(S(=O)(=O)Cc2ccccc2)C1` (stereo not drawn) here?
A: inconclusive: -20.3%

Q: For `CCc1nnc(NC(=O)c2ccc(S(=O)(=O)N3CCCC3)cc2)s1`, which activity change, negative = inhibition is on record?
A: inconclusive: 29.5%

Q: Which activity change, negative = inhibition does the source give for `Cc1nn(-c2ccccc2)c(Cl)c1CN(C(=O)CCl)c1cccc2ccccc12` here?
A: inconclusive: 7.23%

Q: With `CC1CCCCN1C(=O)COC(=O)c1n[nH]c2ccccc12` (stereo not drawn) as the molecule, how does the activity change, negative = inhibition read?
A: inconclusive: -15.7%

Q: For `COc1ccc(C(C)(C)C)cc1NC(=O)C1=CC=CN2CCS(=O)(=O)N=C12`, which activity change, negative = inhibition is on record?
A: inactive

Q: For `COc1cc(S(=O)(=O)NCCCn2ccnc2)ccc1F`, which activity change, negative = inhibition is on record?
A: inactive

Q: Which activity change, negative = inhibition does the source give for `COc1ccccc1-c1nnc(SCC(=O)NCc2c(C)c(Cl)cc(C(C)C)c2O)o1` here?
A: inconclusive: 1.88%

Q: For `NS(=O)(=O)c1cccc(NC(=O)COC(=O)/C(=C/c2cccs2)c2cccs2)c1`, which Potency is on record?
A: inconclusive: 14.6 µM [falling, partial curve, poor fit]

Q: With `Cc1cccn2c(N)c(-c3ccccc3)nc12` as the molecule, how does the activity change, negative = inhibition read?
A: inconclusive: -0.16%

Q: For `O=S(=O)(c1ccc2nc(Nc3ccccc3)ccc2c1)N1CCCCC1`, which activity change, negative = inhibition is on record?
A: inconclusive: 7.4%

Q: Which Potency does the source give for `CC1CCN(S(=O)(=O)c2cccc(-c3csc(-c4cccnc4)n3)c2)CC1` here?
A: inconclusive: 32.6 µM [falling, single point]

Q: Which activity change, negative = inhibition does the source give for `CCOc1ccc(CNC(=O)C(CC)n2nc(C)n3c(cc4occc43)c2=O)cc1OC` (stereo not drawn) here?
A: inconclusive: 12.7%

Q: With `COCCNc1c2c(c(C#N)c3nc4ccccc4n13)CCCC2` as the molecule, how does the Potency read?
A: inconclusive: 7.94 µM [activator, partial curve, poor fit]

Q: Which Potency does the source give for `COc1ccccc1CNC(=O)[C@H](C)NC(=O)C1CCN(C(=O)[C@H](CCSC)NC(=O)OC(C)(C)C)CC1` here?
A: inconclusive: 0.794 µM [rising, full curve, poor fit]

Q: For `COCCCn1c(=O)/c(=C\c2cccc(OC)c2OC)s/c1=C(/C#N)C(=O)Nc1ccc(C(=O)O)cc1`, which activity change, negative = inhibition is on record?
A: inconclusive: -2.07%

Q: With `CNC(=O)c1[nH]cnc1C(=O)Nc1ccccc1C` as the molecule, how does the Potency read?
A: inconclusive: 29.1 µM [falling, single point]

Q: For `O=C1c2cccc3c(N4CCCCC4)ccc(c23)C(=O)N1c1ccccn1`, which activity change, negative = inhibition is on record?
A: inactive

Q: With `O=C1C=C(c2ccccc2Oc2ccccc2)C[C@@H](c2ccc3c(c2)OCO3)C1` as the molecule, how does the activity change, negative = inhibition read?
A: inactive

Q: Which activity change, negative = inhibition does the source give for `CN(CC(=O)Nc1ccc(F)c(F)c1)S(=O)(=O)c1cccs1` here?
A: inconclusive: 5.06%

Q: For `O=C(CNS(=O)(=O)Cc1ccccc1)NCc1ccccc1`, which activity change, negative = inhibition is on record?
A: inconclusive: -10.4%

Q: Which activity change, negative = inhibition does the source give for `CCCCOc1ccc(C(=O)Nc2ccc(N3CCN(C(C)=O)CC3)cc2)cc1` here?
A: inconclusive: 14.9%

Q: For `Cc1c(C(=O)N2CCN(S(=O)(=O)c3ccc(F)cc3)CC2)oc2ccccc12`, which activity change, negative = inhibition is on record?
A: inactive

Q: Which activity change, negative = inhibition does the source give for `Cc1ccc2nc(SCC(=O)NCc3ccco3)[nH]c2c1` here?
A: inconclusive: 11.2%

Q: With `Cc1ccc(C)c2c1cc(C)c1nnc(SCC(=O)Nc3cccc(C(=O)O)c3)n12` as the molecule, how does the activity change, negative = inhibition read?
A: inconclusive: 9.15%

Q: With `C[C@]12CCC(O)CC1CCC1C2CC[C@]2(C)C(c3cc(C(F)(F)F)n[nH]3)CCC12` (stereo partly drawn) as the molecule, how does the activity change, negative = inhibition read?
A: inactive
